According to paper doi:10.1101/2020.10.01.322123 (bioRxiv, 2020):
Results are given in words; binding and its absence hold for the method and conditions named. For some assays here: Binding seen in cells or lysates may run through a third protein. Some binding calls cover weakened binding; strength is not graded here. For some assays here: Tags and fused reporters may be left off the sequences shown.

Assays:
[1] = molecular target: CFP- and RFP-tagged FGFR2^C1 (UniProt P21802); test: FRET or BRET
GST-CT^C1 [2] = molecular target: T1, GST-CT^C1 (UniProt P21802); test: BLI
T1 sequence: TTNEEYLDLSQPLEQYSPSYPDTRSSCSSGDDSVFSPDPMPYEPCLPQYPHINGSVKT

GST-CT^C1 [3] = molecular target: T1, GST-CT^C1; test: pull-down
JM-KD^K518I = JM-KD^K518I (UniProt P21802); test: SEC
JM-KD^Y657/658F = JM-KD^Y657/658F (UniProt P21802); test: SEC

Substance: CFP- and RFP-tagged FGFR2^C1 (from UniProt P21802-3 22-822) (receptor)
- binding [1]: binds

Substance: GRB2 (from UniProt P62993 1-217)
- binding (GST-CT^C1 [2]): binds
- binding (GST-CT^C1 [3]): binds

Substance: JM-KD^K518I (from UniProt P21802-3 414-764) (domain or fragment)
- binding (JM-KD^K518I): no binding (tested: 60 - 80 µM)

Substance: JM-KD^Y657/658F (from UniProt P21802-3 414-764) (domain or fragment)
- binding (JM-KD^Y657/658F): no binding (tested: 60 - 80 µM)
